Data as given in doi:10.1101/2021.05.12.443731.
These are yes or no findings as the source states them, for the method shown. Binding seen in cells or lysates may run through a third protein. Some entries that bind do so weakly or less than the wild type.

Amino acid sequences for entries named in this document (tags omitted).
UniProt Q01196: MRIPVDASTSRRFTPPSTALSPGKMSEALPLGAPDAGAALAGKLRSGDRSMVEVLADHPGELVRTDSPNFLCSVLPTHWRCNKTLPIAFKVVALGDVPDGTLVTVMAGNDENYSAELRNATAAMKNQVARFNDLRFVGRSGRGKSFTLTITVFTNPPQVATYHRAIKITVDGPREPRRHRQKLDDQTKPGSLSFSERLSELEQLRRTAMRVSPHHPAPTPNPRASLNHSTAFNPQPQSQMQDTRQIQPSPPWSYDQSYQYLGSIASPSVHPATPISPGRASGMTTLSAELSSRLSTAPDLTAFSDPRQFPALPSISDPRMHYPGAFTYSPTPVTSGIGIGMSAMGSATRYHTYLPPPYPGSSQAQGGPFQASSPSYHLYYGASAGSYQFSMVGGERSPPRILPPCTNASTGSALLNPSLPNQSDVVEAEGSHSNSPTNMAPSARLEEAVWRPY
UniProt Q96EB6: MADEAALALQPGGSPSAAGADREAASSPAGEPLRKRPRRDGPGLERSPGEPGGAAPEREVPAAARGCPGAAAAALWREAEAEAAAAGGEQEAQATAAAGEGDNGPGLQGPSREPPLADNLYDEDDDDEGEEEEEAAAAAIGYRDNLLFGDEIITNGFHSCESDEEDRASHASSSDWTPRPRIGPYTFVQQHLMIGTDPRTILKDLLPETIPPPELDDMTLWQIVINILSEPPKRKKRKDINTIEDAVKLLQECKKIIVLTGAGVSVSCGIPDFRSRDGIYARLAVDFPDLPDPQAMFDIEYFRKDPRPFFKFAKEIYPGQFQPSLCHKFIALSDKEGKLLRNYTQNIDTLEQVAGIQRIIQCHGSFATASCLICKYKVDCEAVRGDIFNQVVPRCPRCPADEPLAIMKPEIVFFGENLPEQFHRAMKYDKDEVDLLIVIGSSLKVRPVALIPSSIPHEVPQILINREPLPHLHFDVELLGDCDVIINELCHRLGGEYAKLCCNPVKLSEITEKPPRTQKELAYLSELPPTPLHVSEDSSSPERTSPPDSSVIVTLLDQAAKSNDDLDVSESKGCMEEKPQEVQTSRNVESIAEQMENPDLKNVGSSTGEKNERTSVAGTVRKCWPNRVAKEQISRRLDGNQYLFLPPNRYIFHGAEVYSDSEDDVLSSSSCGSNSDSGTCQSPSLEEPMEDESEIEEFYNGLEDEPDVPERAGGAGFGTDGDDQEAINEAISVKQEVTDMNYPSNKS

Tests used:
Assay in all cases: co-IP
[1] = molecular target: T1, FOSL2 (human (endogenous in Th17 cells)) (UniProt P15408)
T1 sequence: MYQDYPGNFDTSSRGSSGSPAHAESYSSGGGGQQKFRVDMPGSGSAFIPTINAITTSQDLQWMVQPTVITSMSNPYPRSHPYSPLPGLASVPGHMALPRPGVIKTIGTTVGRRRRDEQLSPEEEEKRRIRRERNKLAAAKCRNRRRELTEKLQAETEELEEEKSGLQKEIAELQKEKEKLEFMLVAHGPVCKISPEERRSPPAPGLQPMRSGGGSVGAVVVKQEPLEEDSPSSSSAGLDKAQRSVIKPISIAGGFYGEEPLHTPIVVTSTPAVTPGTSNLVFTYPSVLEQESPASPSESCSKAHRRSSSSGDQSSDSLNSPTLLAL

[2] = molecular target: T2, FOSL1 (human (endogenous in Th17 cells)) (UniProt P15407)
T2 sequence: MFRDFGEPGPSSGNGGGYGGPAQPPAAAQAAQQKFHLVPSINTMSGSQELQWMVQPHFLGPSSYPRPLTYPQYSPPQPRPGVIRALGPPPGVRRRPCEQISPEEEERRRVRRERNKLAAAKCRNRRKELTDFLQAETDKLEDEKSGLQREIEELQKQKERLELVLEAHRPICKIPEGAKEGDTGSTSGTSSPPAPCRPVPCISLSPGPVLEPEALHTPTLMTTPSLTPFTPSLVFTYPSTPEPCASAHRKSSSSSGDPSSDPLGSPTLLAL

[3] = molecular target: T3, FOSL1 (human (endogenous in Th17 cells)), P15407; details: remark: other sources report otherwise
T3 chain: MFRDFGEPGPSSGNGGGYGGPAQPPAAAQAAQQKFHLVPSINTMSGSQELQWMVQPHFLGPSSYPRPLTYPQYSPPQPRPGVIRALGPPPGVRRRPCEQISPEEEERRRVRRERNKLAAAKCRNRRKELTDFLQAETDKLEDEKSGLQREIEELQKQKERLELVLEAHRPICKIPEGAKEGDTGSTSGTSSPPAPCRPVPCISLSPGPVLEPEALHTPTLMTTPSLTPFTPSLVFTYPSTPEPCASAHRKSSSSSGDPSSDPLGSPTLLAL

[4] = molecular target: T4, FOSL2 (human (endogenous in Th17 cells)), P15408; details: remark: other sources report otherwise
T4 chain: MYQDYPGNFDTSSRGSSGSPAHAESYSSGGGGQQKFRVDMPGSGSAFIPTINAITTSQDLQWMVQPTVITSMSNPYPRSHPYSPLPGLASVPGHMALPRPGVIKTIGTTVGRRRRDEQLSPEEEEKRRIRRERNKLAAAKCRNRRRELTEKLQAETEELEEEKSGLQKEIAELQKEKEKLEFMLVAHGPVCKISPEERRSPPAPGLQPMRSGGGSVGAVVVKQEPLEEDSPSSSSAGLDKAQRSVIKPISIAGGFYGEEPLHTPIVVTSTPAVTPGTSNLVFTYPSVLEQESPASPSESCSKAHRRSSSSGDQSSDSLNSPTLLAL

RUNX1 (from UniProt Q01196 1-453)
binding [1]: binds | binding [2]: binds

SIRT-1 (from UniProt Q96EB6)
binding [1]: binds | binding [2]: binds

B1: JUNB, P17275 1-347 (protein)
chain: MCTKMEQPFYHDDSYTATGYGRAPGGLSLHDYKLLKPSLAVNLADPYRSLKAPGARGPGPEGGGGGSYFSGQGSDTGASLKLASSELERLIVPNSNGVITTTPTPPGQYFYPRGGGSGGGAGGAGGGVTEEQEGFADGFVKALDDLHKMNHVTPPNVSLGATGGPPAGPGGVYAGPEPPPVYTNLSSYSPASASSGGAGAAVGTGSSYPTTTISYLPHAPPFAGGHPAQLGLGRGASTFKEEPQTVPEARSRDATPPVSPINMEDQERIKVERKRLRNRLAATKCRKRKLERIARLEDKVKTLKAENAGLSSTAGLLREQVAQLKQKVMTHVSNGCQLLLGVKGHAF
binding [3]: binds

B2: JUNB (protein, UniProt P17275 1-347)
chain: MCTKMEQPFYHDDSYTATGYGRAPGGLSLHDYKLLKPSLAVNLADPYRSLKAPGARGPGPEGGGGGSYFSGQGSDTGASLKLASSELERLIVPNSNGVITTTPTPPGQYFYPRGGGSGGGAGGAGGGVTEEQEGFADGFVKALDDLHKMNHVTPPNVSLGATGGPPAGPGGVYAGPEPPPVYTNLSSYSPASASSGGAGAAVGTGSSYPTTTISYLPHAPPFAGGHPAQLGLGRGASTFKEEPQTVPEARSRDATPPVSPINMEDQERIKVERKRLRNRLAATKCRKRKLERIARLEDKVKTLKAENAGLSSTAGLLREQVAQLKQKVMTHVSNGCQLLLGVKGHAF
binding [1]: binds

B3: JUN, P05412 1-331 (protein)
chain: MTAKMETTFYDDALNASFLPSESGPYGYSNPKILKQSMTLNLADPVGSLKPHLRAKNSDLLTSPDVGLLKLASPELERLIIQSSNGHITTTPTPTQFLCPKNVTDEQEGFAEGFVRALAELHSQNTLPSVTSAAQPVNGAGMVAPAVASVAGGSGSGGFSASLHSEPPVYANLSNFNPGALSSGGGAPSYGAAGLAFPAQPQQQQQPPHHLPQQMPVQHPRLQALKEEPQTVPEMPGETPPLSPIDMESQERIKAERKRMRNRIAASKCRKRKLERIARLEEKVKTLKAQNSELASTANMLREQVAQLKQKVMNHVNSGCQLMLTQQLQTF
binding [4]: binds
